Test results as given in PubChem BioAssay AID2551 (National Center for Advancing Translational Sciences (NCATS), 2010).
Among all 310,000 compounds or so, about 17,000 (5.5%) were called active. The shares of active, inactive and inconclusive entries below differ from those in the screen. Calls come from the whole dose curve; as a rule, active = well fitted inhibition curve with a large enough effect; inconclusive = small, poorly fitted or top-dose-only effect, or effect the other way; inactive = no such curve, though single readings can be large or run the other way. Potencies beside an inconclusive call are fits to weak or partial responses and may not hold up.

By UniProt entry, the sequences of proteins in these tests, tags left out. Where a name states a change or a piece, a line headed by the entry shows the natural chain unless it says otherwise.
UniProt P51450: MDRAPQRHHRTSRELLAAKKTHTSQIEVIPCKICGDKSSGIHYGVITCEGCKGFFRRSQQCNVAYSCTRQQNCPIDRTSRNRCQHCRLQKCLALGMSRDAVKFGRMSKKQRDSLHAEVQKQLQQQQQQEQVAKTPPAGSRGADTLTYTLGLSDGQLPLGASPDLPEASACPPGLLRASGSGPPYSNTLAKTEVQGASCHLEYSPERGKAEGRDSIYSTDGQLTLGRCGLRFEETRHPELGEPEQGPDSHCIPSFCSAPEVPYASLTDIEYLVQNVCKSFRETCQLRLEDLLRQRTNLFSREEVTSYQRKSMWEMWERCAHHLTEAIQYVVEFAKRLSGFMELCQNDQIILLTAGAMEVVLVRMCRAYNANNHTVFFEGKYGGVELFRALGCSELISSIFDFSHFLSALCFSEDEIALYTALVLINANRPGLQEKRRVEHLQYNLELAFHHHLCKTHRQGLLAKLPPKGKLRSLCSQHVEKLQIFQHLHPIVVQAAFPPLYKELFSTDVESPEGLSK

Each compound was assayed against Nuclear receptor ROR-gamma (Mus musculus) (UniProt P51450) (assay: qHTS for inhibitors of ROR gamma transcriptional activity). Conditions: Drosophila S2 Gal4-RORgamma UAS-luciferase reporter, 20 h; series mostly up to 53.6 µM.
How it was run: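 ROR gamma transcriptional activity was tracked as Gal4-UAS luciferase output in stably transfected Drosophila Schneider cells, with compound added 1 hr before 700 uM copper sulfate induction and a 20 hr ambient-temperature incubation.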
Note: nearly all actives have a fitted effect of over 60% in size.
Potency is the fitted concentration of half-maximal effect.

Structure (SMILES)	Potency
O=C(CC1(O)C(=O)Nc2ccccc21)c1ccc2c(c1)OCO2 (stereo unspecified)	inactive
N=c1oc2ccccc2cc1-c1nc(-c2ccccc2)cs1	inconclusive: 10 µM [activator, partial curve]
CC(C)(C)NC(=O)c1ccc(COc2ccc(Cl)cc2Cl)o1	inconclusive: 31.6 µM [activator, single point]
COc1ccc(C2C(C(=O)NCC3CCCO3)CCC(=O)N2c2ccc3c(c2)OCO3)cc1 (stereo unspecified)	inactive
CNC1C(O)C(OC2C(N)CC(N)C(OC3OC(CN)=CCC3N)C2O)OCC1(C)O (stereo unspecified)	inactive
O=C(N/N=C/c1ccc(Br)s1)c1cccc([N+](=O)[O-])c1	active: 0.447 µM
C#CCOC(=O)Nc1cccn(Cc2c(Cl)cccc2Cl)c1=O	inconclusive: 35.5 µM [activator, single point]
Cc1nc(CC(=O)c2c(C)cc(O)cc2O)cs1	inconclusive: 11.2 µM [activator, partial curve]
CCOC(=O)c1[nH]c2ccc(OCC)cc2c1NC(=O)CN1CCN(c2ccccn2)CC1	inconclusive: 22.4 µM [activator, single point]
Cc1ccccc1OCC(=O)NC(=S)Nc1ccc(N2CCOCC2)c(Cl)c1	inconclusive: 0.316 µM [inhibitor, full curve, poor fit]
CCSc1nnc(NC(=O)CSc2nc3c(c(=O)n2-c2ccccc2)SCC3)s1	inconclusive: 10 µM [activator, partial curve, poor fit]
CC(=O)c1cccc(-n2c(CCC(=O)O)ccc2-c2cccs2)c1	inconclusive: 35.5 µM [inhibitor, single point]
Cc1ccc(NC(=S)N(CCCN2CCOCC2)Cc2ccccn2)cc1	inactive
Cc1ccc(-n2c(CSc3nc(C)cc(C)n3)n[nH]c2=S)cc1	active: 14.1 µM
CSc1ccc(/C=N/n2c(COc3ccccc3)n[nH]c2=S)cc1	inconclusive: 3.98 µM [inhibitor, full curve, poor fit]
COC(=O)C1(S(=O)(=O)c2cccc3nsnc23)CC1	inactive
COc1ccc(NC(=O)CC2C(=O)N(c3ccc(Cl)cc3)C(=S)N2NC(=O)c2cccc(F)c2)cc1 (stereo unspecified)	active: 10 µM
FC(F)(F)c1nc2ccccc2n2c(-c3ccc(Cl)cc3Cl)nnc12	inactive
Oc1ccc(N=Nc2nc(-c3ccccc3)c(-c3ccccc3)[nH]2)cc1	active: 12.6 µM
Cc1ccc2cc3cc(C(=O)N4CCN(C(=O)c5ccco5)CC4)sc3nc2c1	inconclusive: 20 µM [activator, single point]
Cc1ccc(NS(=O)(=O)c2cccc(C(=O)Nc3cc(C)on3)c2)cc1	inconclusive: 14.1 µM [activator, single point]
COc1cc(Cn2c(-c3ccc(O)c(OC)c3)nc3ccccc32)ccc1O	inconclusive: 35.5 µM [inhibitor, single point]
CCc1nc(SCC(=O)N2c3ccccc3CC2C)c2c(C)c(C)sc2n1 (stereo unspecified)	inactive
CCCn1c(C(C)Nc2nc(-c3cc(Cl)c(N)c(Cl)c3)cs2)nc2cc(Cl)c(N3CCCCC3)cc21 (stereo unspecified)	active: 14.1 µM

Structure (SMILES)	Potency
CSc1nc(C(=O)N2CCCC(C(=O)c3ccc(Cl)cc3)C2)cs1 (stereo unspecified)	inconclusive: 12.6 µM [activator, single point]
COCCN(C(=S)Nc1cccc(OC)c1)C(C)c1cccs1 (stereo unspecified)	inconclusive: 20 µM [inhibitor, single point]
COc1cc(NC(=O)CSCc2cnn(-c3ccccc3)c2-n2cccc2)cc(OC)c1	inconclusive: 17.8 µM [activator, partial curve]
Cc1ccc(S(=O)(=O)N(CCCO)CC(O)CON=C2c3ccccc3-c3ccccc32)cc1 (stereo unspecified)	inconclusive: 25.1 µM [activator, single point]
Cc1cnc(C(=O)NC2CC(C)(C)Cc3c2cnn3-c2ccccc2)cn1 (stereo unspecified)	inconclusive: 28.2 µM [activator, single point]
Cc1cccc(NC(=O)CSc2cccc3cccnc23)c1	inconclusive: 12.6 µM [inhibitor, single point]
Cc1ccc(NC(=O)NCc2ccncc2)cc1Cl	inconclusive: 14.1 µM [activator, single point]
Cc1cccc(C(=O)N(c2ccccn2)C(C)c2ccco2)c1 (stereo unspecified)	inactive
O=C(Nc1cccc2ccccc12)N1CCc2ccccc2C1	inconclusive: 14.1 µM [activator, single point]
Cc1ccc(NS(=O)(=O)c2ccc(OCC(=O)Nc3cccc([N+](=O)[O-])c3)c(C)c2)cc1	inconclusive: 35.5 µM [activator, single point]
CC(C)Oc1ccc(C(=O)/C(=C\c2cccs2)c2nc3ccccc3o2)cc1	inactive
COc1ccc(N2C(=O)CC(Sc3nnc(-c4ccccc4F)n3C)C2=O)cc1 (stereo unspecified)	inconclusive: 15.8 µM [inhibitor, single point]
O=C1CC(/C=C/c2ccc(Cl)cc2)=Nc2ccccc2N1	inconclusive: 20 µM [activator, partial curve, poor fit]
Fc1ccc(NC(=S)NN=C2CCCCCC2)cc1	active: 4.47 µM
Cc1ccc(N2C(=O)c3cccc4c([N+](=O)[O-])ccc(c34)C2=O)c2cccnc12	inactive
COc1ccc(CN(C)C(=O)c2cc(-c3ccc(C)cc3C)nc3ccccc23)c(OC)c1OC	inactive
Cc1ccc(OCc2n[nH]c(=S)n2-c2ccc(Br)cc2)cc1	active: 2.24 µM
COc1ccccc1N1C(=O)CC(Nc2ccc(N3CCOCC3)cc2)C1=O (stereo unspecified)	inactive
Cn1cc(CN2CCC(n3nccc3NC(=O)C3CCCC3)CC2)cn1	inactive
O=C(CCc1ccc(S(=O)(=O)N2CCOCC2)cc1)Nc1nccs1	inactive
C/C(=N/NS(=O)(=O)c1ccc(Cl)cc1)c1ccncc1	inactive
O=C(Nc1ccc(F)cc1)N1CCCN(c2ccc(C(F)(F)F)cn2)CC1	inconclusive: 10 µM [activator, partial curve, poor fit]
Cc1ccccc1C(=O)Nc1ccc(Br)cn1	inconclusive: 0.891 µM [activator, full curve]
CCC(C)c1ccccc1NC(=O)CN(C)CC(=O)Nc1ccccc1SC (stereo unspecified)	active: 15.8 µM

Structure (SMILES)	Potency
COc1ccc(-c2cc(N3CCCC3)n3ncnc3n2)cc1	inactive
CC(C)CC(=O)NC(=S)Nc1nc(-c2cccc3ccccc23)cs1	active: 3.16 µM
CCOC(=O)c1cc(-c2ccccc2)n(CCC(=O)N2CCN(c3ccc(OC)cc3)CC2)c1C	inconclusive: 20 µM [activator, partial curve]
COC(=O)c1cc2occc2n1Cc1nc(-c2ccccc2Cl)oc1C	inconclusive: 22.4 µM [activator, single point]
COc1cccc(-c2nc3c(c(=O)[nH]c(=O)n3Cc3ccccc3)n2CCO)c1OC(F)F	inactive
Cc1nnc(N/N=C/c2c(Cl)cccc2Cl)n1N	inconclusive: 12.6 µM [inhibitor, single point]
Cc1[nH]c(-c2ccc(F)cc2)cc1C(=O)N1CCN(c2ccccc2)CC1	inconclusive: 15.8 µM [activator, partial curve]
CCC(C)n1ncn(-c2ccc(N3CCN(c4ccc(O)cc4)CC3)cc2)c1=O (stereo unspecified)	inconclusive: 35.5 µM [activator, single point]
CC1(C)CC(=O)C(N=Nc2c(Cl)cc(Cl)cc2Cl)=C(O)C1	inconclusive: 35.5 µM [inhibitor, single point]
CC(C)n1cnc2cc(NCc3ccco3)ccc21	inactive
Cc1occc1-c1nnc(SCC(=O)c2cc3ccccc3oc2=O)o1	inconclusive: 35.5 µM [inhibitor, single point]
COC(=O)c1c(N2C(=O)[C@H]3[C@@H](C2=O)[C@]2(C(=O)Nc4ccccc42)N2CCC[C@@H]32)sc(C)c1C	inconclusive: 35.5 µM [inhibitor, single point]
CC(O)/C=C/C1OC(=O)CC1Nc1ccc(C=O)cc1 (stereo unspecified)	inactive
O=C(NC1CC2CCCC(C1)N2S(=O)(=O)c1ccccc1)c1ccccc1 (stereo unspecified)	inconclusive: 20 µM [activator, single point]
CN(C)/N=C/c1ccc(Sc2ccc([N+](=O)[O-])cc2[N+](=O)[O-])o1	inconclusive: 22.4 µM [inhibitor, single point]
CCN1CCN(S(=O)(=O)c2ccc(Oc3ccccc3OC)cc2)CC1	inconclusive: 15.8 µM [activator, single point]
CCOc1ccccc1C(=O)OCC(=O)Nc1cc(Cl)ccc1Oc1ccccc1	inconclusive: 10 µM [activator, partial curve]
Cc1ccc(-n2nnnc2SCC(=O)c2ccc3c(c2)NC(=O)CO3)c(C)c1	inconclusive: 6.31 µM [inhibitor, single point]
CCCCCCCOC(=O)C[N+](C)(C)CCOC1CC2CCC1(C)C2(C)C (stereo unspecified)	inconclusive: 35.5 µM [inhibitor, single point]
CCOc1ccc2c(c1)s/c(=N\S(=O)(=O)c1ccc(OC)cc1)n2C(F)F	inconclusive: 25.1 µM [activator, single point]
CN1c2ccsc2C(O)=C(C(=S)Nc2ccc(F)c(Cl)c2)S1(=O)=O	inconclusive: 22.4 µM [inhibitor, single point]
CSc1nc(Cl)c(Cc2ccc(OCC(C)C)cc2)c(N2CCOCC2)n1	inactive
COc1cccc(-c2cnc(OC(C)(C)C)nc2OC(C)(C)C)c1	inconclusive: 35.5 µM [inhibitor, single point]

An excerpt of these results, in markdown:

| Structure (SMILES) | Potency |
| --- | --- |
| COc1cccc(-c2nc3c(c(=O)[nH]c(=O)n3Cc3ccccc3)n2CCO)c1OC(F)F | inactive |
| CC1(C)CC(=O)C(N=Nc2c(Cl)cc(Cl)cc2Cl)=C(O)C1 | inconclusive: 35.5 µM [inhibitor, single point] |
| CSc1nc(Cl)c(Cc2ccc(OCC(C)C)cc2)c(N2CCOCC2)n1 | inactive |
